Where a name gives a salt, the structure may show the parent alone. The list shows a part of the results. The calls rarely recur for the same compound in another form.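 Kinases were expressed as nanoluciferase fusions in K562 cells and luminescence was read every 4 h between 2 and 18 h as percent of control, DMSO set to 100% and a positive control to 0%. A time point counts as decreased when the signal drops significantly (2 sigma). The hit call is the authors' own, does not follow from the count of time points alone, and its rule is not shown.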
The molecules below were run against CDK7 (UniProt P50613) (assay: number of time points (of 4; 2 h point missing) at which kinase-Nluc abundance scored as decreased, DMSO-normalised (count); higher = more persistent destabilization). Settings: K562; 2-18 h.

By UniProt entry, the sequences of proteins in these tests, tags left out. Where a name states a change or a piece, a line headed by the entry shows the natural chain unless it says otherwise.
UniProt P50613: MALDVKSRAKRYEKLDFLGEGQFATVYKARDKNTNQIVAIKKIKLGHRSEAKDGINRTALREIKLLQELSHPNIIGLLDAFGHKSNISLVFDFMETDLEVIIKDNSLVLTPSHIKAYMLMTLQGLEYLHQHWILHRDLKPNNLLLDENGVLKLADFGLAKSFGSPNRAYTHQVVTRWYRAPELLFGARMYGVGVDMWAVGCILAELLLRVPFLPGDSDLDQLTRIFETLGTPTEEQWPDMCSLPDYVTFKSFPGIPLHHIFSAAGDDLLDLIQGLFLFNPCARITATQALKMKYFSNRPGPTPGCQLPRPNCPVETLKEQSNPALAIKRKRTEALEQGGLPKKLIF

Structure (SMILES)	number of time points
O=C(Nc1cccnc1)c1cc(-c2ccnc(F)c2)ccc1OCc1ccccc1 (10 µM)	0
COc1c(O)cc2oc(-c3ccc(O)cc3)cc(=O)c2c1O [Hispidulin] (10 µM)	0
O=C1CC[C@H](NC(=O)Cc2ccccc2)C(=O)N1 [Antineoplaston A10] (10 µM)	0
CC(C)Oc1ccc(F)c(-c2cnc(N)c(C(=O)Nc3cnccc3N3CCC[C@@H](C(=O)O)C3)n2)c1 (2 µM)	0
Nc1nc2c(nc(Br)n2[C@@H]2O[C@@H]3COP(=O)(O)O[C@H]3[C@H]2O)c(=O)[nH]1 [8-Bromo-cGMP (sodium)] (10 µM)	0
Cc1cc(-n2c(=O)ccc3c[nH]c4nccc-4c32)ccc1F (10 µM)	0
CO[C@H]1CC[C@H](N2C(=O)CNc3ncc(-c4ccc(C(C)(C)O)nc4)nc32)CC1 (2.5 µM)	0
COc1cc2c(cc1OC)/C(=C/c1ccc(O)cc1)C(=O)N2 (10 µM)	0
NCCOc1ccc(Cl)cc1C(=O)Nc1ccc([N+](=O)[O-])cc1Cl [HJC0152 hydrochloride] (2 µM)	0
CCN(CC)CCOc1ccc(Nc2nc(-c3ccccc3NC(=O)CCN3CCN(C)CC3)nc3ccccc23)cc1 (2.5 µM)	0
C=CC(=O)N1CCN(C(=O)CNc2cc(I)c(Cl)cc2O)CC1 [K-Ras(G12C) inhibitor 12] (10 µM)	0
N[C@@H]1CCCN(c2c(/C=C3\SC(=O)NC3=O)cccc2-c2ccccc2)C1 (10 µM)	0
O=C(Nc1cc(Cl)cc2c1[nH]c1cnccc12)c1cccnc1 (10 µM)	0
C=C1C(=O)[C@@]23[C@H](O)C[C@@H]4C(C)(C)C(=O)CC[C@@]4(C)[C@@H]2CC[C@@H]1[C@H]3O [Glaucocalyxin A] (2.5 µM)	0
C[C@@H]1O[C@@H](Oc2cc(O)c3c(=O)c(O[C@@H]4O[C@@H](C)[C@H](O)[C@@H](O)[C@H]4O)c(-c4ccc(O)cc4)oc3c2)[C@H](O)[C@H](O)[C@H]1O [Kaempferitrin] (10 µM)	0
Cc1c(C(=O)Nc2ccc(Oc3ccnc4[nH]cc(-c5ccccc5)c34)c(F)c2)c(=O)n(-c2ccc(F)cc2)n1C (10 µM)	1
c1nc2c(NC3CCCCC3)nc(Nc3ccc(N4CCOCC4)cc3)nc2[nH]1 [Reversine] (10 µM)	2
CN1CCN(c2ccc(Nc3ncc4cc(C#N)c(=O)n(C5CCCC5)c4n3)cc2)CC1 (10 µM)	0
NC[C@@](O)(c1ccc(Cl)cc1)c1ccc(-c2cn[nH]c2)cc1 (10 µM)	0
Cc1ccc(-n2nc(C(C)(C)C)cc2NC(=O)Nc2ccc(OCCN3CCOCC3)cc2)cc1 (10 µM)	0
c1ccc(Cn2c(-c3ccc(OC[C@H](C4CCNCC4)n4c(-c5ccccc5)nc5ccccc54)cc3)nc3ccccc32)cc1 [Deltarasin] (2.5 µM)	0
C=CC(=O)N1CC[C@@H](Oc2nc(Nc3ccc(N4CCC(N5CCN(C)CC5)CC4)cc3)c(C(N)=O)nc2CC)C1 [Naquotinib (mesylate)] (2.5 µM)	0
Cc1cc(O)c2c(c1)C(=O)c1cccc(O)c1C2=O [Chrysophanol] (2 µM)	0
Cc1cc(C(=O)NC(C)(C)C)cc(C#Cc2ccc3c4c(oc3c2)C(C)(C)c2cc(NS(C)(=O)=O)ccc2C4=O)n1 (10 µM)	0
Nc1nc(NCCNc2ncc(-n3ccnc3)c(-c3ccc(Cl)cc3Cl)n2)ccc1[N+](=O)[O-] (2.5 µM)	0
Cn1c(CNc2cccc(C(=O)NCc3ccccc3C(F)(F)F)c2)nnc1-c1ccncc1 (10 µM)	0

A second format for two compounds above.
O=C1CC[C@H](NC(=O)Cc2ccccc2)C(=O)N1 [Antineoplaston A10] (10 µM)
  number of time points: 0
C=CC(=O)N1CC[C@@H](Oc2nc(Nc3ccc(N4CCC(N5CCN(C)CC5)CC4)cc3)c(C(N)=O)nc2CC)C1 [Naquotinib (mesylate)] (2.5 µM)
  number of time points: 0

Reference: the supplement of paper PMC12823440, “Inhibitors supercharge kinase turnover through native proteolytic circuits” (Nature, 2025)
